The list shows a part of the results. These are further read-outs of the screen, such as a control signal, another cell line or another target. No call is given for them. Most of these compounds were active or inconclusive in the main read-out, so they are no random draw. Potencies come from curve fits of mixed quality, noted in brackets.
Test: qHTS Assay for Modulators of Lamin A Splicing
Conditions: HeLa LMNA splicing GFP/RFP minigene ratio, 48 h
How it was run: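 S3 HeLa cells stably expressing lamin A-EGFP splicing minigene plus DsRed2, 600 cells/well, 48 h compound exposure at 37C. Laser-scanning cytometry; analysed as GFP (500-530 nm)/RFP (575-640 nm) total intensity ratio; 0.5% DMSO vehicle.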

[1] = measured here: GFP splicing reporter channel
[2] = measured here: RFP viability control channel

Structure (SMILES)	AC50 [1]	AC50 [2]
S=c1[nH]nc(-c2ccccn2)n1/N=C/c1ccc(-c2ccccc2Br)o1	11.2 µM [falling, partial curve, poor fit]	6.31 µM [falling, partial curve, poor fit]
CC1Cc2nc(SCC(=O)Nc3nc4ccccc4s3)n(C)c(=O)c2S1 (configuration not stated)	–	35.5 µM [rising, single point]
CC(C)CCOc1ccc(C(=O)N2CCCC2C(=O)O)cc1 (configuration not stated)	0.0316 µM [rising, full curve, poor fit]	–
COC(=O)c1c(NC(=O)CN2CCOCC2)sc2c1CCC(C)C2 (configuration not stated)	10 µM [rising, single point]	–
Cc1cccc(CNc2ncnc3ccc(-c4ccc5c(c4)OCO5)cc23)c1	25.1 µM [falling, single point]	8.91 µM [falling, partial curve]
CCCC(=O)c1ccc(N2CCN(C(=O)c3ccc(Br)cc3)CC2)c(F)c1	12.6 µM [rising, single point]	–
COc1cccc(CSc2nc3cc4c(cc3cc2C)OCCO4)c1	–	5.62 µM [rising, partial curve, poor fit]
Cc1cc(C)nc(/N=C(\N)Nc2ccc(S(=O)(=O)Nc3nccc(C)n3)cc2)n1	0.398 µM [falling, full curve]	–
CCc1ccc(NC(=O)c2cc(S(=O)(=O)NC3CCCC3)ccc2F)cc1	11.2 µM [falling, partial curve]	–
CC(C)c1ccccc1OCCCCCNCCO	–	0.00316 µM [falling, full curve, poor fit]
Clc1ccc(CSc2nnc(NC3=NCCCCC3)s2)cc1	–	35.5 µM [rising, single point]
COc1ccc(C(=O)Oc2cccc(/C=N/NC(N)=S)c2)cc1	–	35.5 µM [rising, single point]
Cc1cc(C)cc(Oc2coc3cc(OC(=O)c4cccnc4)ccc3c2=O)c1	–	35.5 µM [rising, single point]
Cc1ccc(S(=O)(=O)N(CC(=O)Nc2ccccc2C(=O)O)c2cccc(Cl)c2C)cc1	0.355 µM [falling, partial curve, poor fit]	31.6 µM [rising, single point]
CCN[C@@H]1CN(CCCOC)S(=O)(=O)c2sc(S(N)(=O)=O)cc21	7.08 µM [falling, partial curve, poor fit]	0.002 µM [falling, full curve, poor fit]
O=C(Nc1ccc(Cl)cc1)N1CC=CCC1	5.62 µM [rising, single point]	5.62 µM [rising, single point]
COc1ccc(OCC(O)Cn2c(=N)n(Cc3ccccc3)c3ccccc32)cc1 (configuration not stated)	–	35.5 µM [rising, single point]
CC(C(=O)OCc1nnc(-c2ccccc2)o1)N1C(=O)C2CCCCC2C1=O (configuration not stated)	1 µM [rising, full curve, poor fit]	0.141 µM [rising, full curve, poor fit]
O=C(Nc1ccccc1Oc1ccccc1)c1ccccc1F	22.4 µM [rising, single point]	–
Cc1ccc(S(=O)(=O)n2cc(-c3ccccc3)c(N)n2)cc1	–	28.2 µM [rising, single point]

Structure (SMILES)	AC50 [1]	AC50 [2]
CCNc1ncc2nc(CCc3ccccc3)c(=O)n(Cc3ccc(F)cc3)c2n1	22.4 µM [falling, single point]	11.2 µM [falling, partial curve]
Cc1cccc(OCC(=O)Nc2cccc(C(=O)NCC(C)C)c2)c1	–	35.5 µM [rising, single point]
CC(C(=O)Nc1cc([N+](=O)[O-])ccc1Cl)N1CCN(c2ccc(O)cc2)CC1 (configuration not stated)	–	12.6 µM [rising, single point]
c1ccc(CN2CCC(N=C3NN=C(c4ccc5c(c4)OCCO5)CS3)CC2)cc1	–	14.1 µM [falling, single point]
N=C(N)c1ccc(N)cc1	0.398 µM [falling, partial curve, poor fit]	–
O=C(Nc1sc2c(c1C(=O)NCC1CCCO1)CCCC2)c1cccs1 (configuration not stated)	–	28.2 µM [rising, single point]
NC(=O)CSc1nnc(Cc2ccc3c(c2)OCO3)o1	–	0.447 µM [falling, single point]
CCCN(CCC)CCc1cccc2c1CC(=O)N2	35.5 µM [falling, single point]	35.5 µM [falling, single point]
O=C(CNc1cc(S(=O)(=O)N2CCCC2)ccc1OCC(F)(F)F)Nc1cccc(C(F)(F)F)c1	–	8.91 µM [rising, partial curve]
CC(=O)c1ccc(Nc2cc(C)nc3nc(C)nn23)cc1	–	3.98 µM [rising, single point]
COc1cccc(CNC(=O)C(=O)NCC(c2cccs2)S(=O)(=O)c2ccccc2)c1 (configuration not stated)	–	35.5 µM [falling, partial curve, poor fit]
Oc1ccc(/C=N/Nc2nc(-c3ccc(Cl)cc3)cc(C(F)(F)F)n2)cc1	14.1 µM [rising, single point]	12.6 µM [rising, partial curve]
Cc1ccc2[nH]c(=O)c(C3C(C#N)=C(N)Oc4c3ccc3cccnc43)cc2c1 (configuration not stated)	–	25.1 µM [rising, single point]
O=C1CC(=C(c2ccccc2)c2ccccc2)C(=O)N1CCN1CCN(c2cccc(Cl)c2)CC1	–	12.6 µM [rising, single point]
Cc1ccccc1Cn1c(-c2cncs2)nc2ccccc21	31.6 µM [rising, single point]	–
COc1ccc2c(c1)OC(O)(C(F)(F)C(F)F)CC2=O (configuration not stated)	–	14.1 µM [rising, partial curve]
CCCCN=C(N)N=C(N)N	35.5 µM [falling, single point]	3.16 µM [falling, partial curve, poor fit]
COc1ccc2cc(C3C(C#N)=C(N)OC(C)=C3C(C)=O)c(Cl)nc2c1 (configuration not stated)	15.8 µM [falling, partial curve, poor fit]	–
COC(=O)[C@@]1(Cc2ccc(F)cc2)[C@H]2c3cc(C(=O)N(C)C)n(Cc4ccc(OC(F)(F)F)cc4)c3C[C@H]2CN1C(=O)c1ccccc1	–	35.5 µM [rising, single point]
CC(C)CC(=O)NCC(c1ccc2c(c1)OCO2)N1CCN(c2ccccc2)CC1 (configuration not stated)	0.316 µM [falling, partial curve]	–

Reformatted: 4 of the compounds above
COC(=O)c1c(NC(=O)CN2CCOCC2)sc2c1CCC(C)C2 (configuration not stated)
  AC50 [1]: 10 µM [rising, single point]
Cc1cccc(CNc2ncnc3ccc(-c4ccc5c(c4)OCO5)cc23)c1
  AC50 [1]: 25.1 µM [falling, single point]
  AC50 [2]: 8.91 µM [falling, partial curve]
CCCC(=O)c1ccc(N2CCN(C(=O)c3ccc(Br)cc3)CC2)c(F)c1
  AC50 [1]: 12.6 µM [rising, single point]
COc1cccc(CSc2nc3cc4c(cc3cc2C)OCCO4)c1
  AC50 [2]: 5.62 µM [rising, partial curve, poor fit]

(list continues)

Structure (SMILES)	AC50 [1]	AC50 [2]
CS(=O)(=O)NNC(=O)c1sccc1OCc1ncc(C(F)(F)F)cc1Cl	12.6 µM [rising, partial curve]	–
COc1ccc(C2C(C(=O)Nc3ccccc3)=C(C)Nc3nc(CCCO)nn32)cc1 (configuration not stated)	–	0.00708 µM [falling, full curve, poor fit]
CCOC(=O)c1oc2ccccc2c1NC(=O)c1ccccc1OC	35.5 µM [falling, single point]	–
COc1ccc(C(=O)C2CCCN(Cc3cn[nH]c3-c3ccc(F)cc3)C2)cc1OC (configuration not stated)	35.5 µM [falling, single point]	–
Cc1cc(NCCCn2ccnc2)n2ncc(-c3ccccc3)c2n1	35.5 µM [rising, single point]	–
Cc1cccc(-n2c(SCc3ccc(C#N)cc3)nnc2-c2c[nH]c3ccccc23)c1	–	35.5 µM [rising, single point]
Cc1ccc(-n2ncc3c(N4CCCCCC4)ncnc32)cc1Cl	0.158 µM [falling, full curve, poor fit]	–
CCOc1ccc(S(=O)(=O)NCc2ccc(C)cc2)c2cccnc12	35.5 µM [rising, single point]	0.355 µM [falling, partial curve, poor fit]
N#Cc1ccccc1NC(=O)CSc1nnc(-c2ccc(F)cc2)n1-c1ccccc1	12.6 µM [rising, single point]	14.1 µM [rising, single point]
O=S(=O)(Nc1cccc2c1CCCC2)c1ccc(Cl)cc1	–	14.1 µM [rising, partial curve, poor fit]
COc1c(N2C[C@@H]3CCCN[C@H]3C2)c(F)cc2c(=O)c(C(=O)O)cn(C3CC3)c12	20 µM [falling, single point]	–
Cc1ccc(C(=O)N/N=C/c2nc3ccccc3n2C)cc1	11.2 µM [falling, single point]	–
COc1cccc2[nH]c3c(N4CCCC(C)C4)ncnc3c12 (configuration not stated)	8.91 µM [rising, partial curve]	20 µM [rising, partial curve, poor fit]
COc1ccc(CC(=O)NCC(c2cccs2)S(=O)(=O)c2ccc(F)c(C)c2)cc1 (configuration not stated)	–	25.1 µM [falling, partial curve, poor fit]
Cc1cnc(CNc2nc(-c3ccc(N(C)C)cc3)nc3ccccc23)cn1	35.5 µM [falling, single point]	35.5 µM [falling, single point]
O=C(Nc1ccc(Cl)cn1)C1CCCN1S(=O)(=O)c1cccc2ccccc12 (configuration not stated)	–	15.8 µM [rising, single point]
O=C(NCc1ccc2c(c1)OCO2)c1sccc1Br	0.00447 µM [falling, full curve, poor fit]	–
COC(=O)c1ccc(CNC(=O)COC(=O)Cc2ccsc2)cc1	–	0.00501 µM [falling, full curve, poor fit]
